# Assay results as given in publication doi:10.1101/2021.07.30.454416.
# These are yes or no findings as the source states them, for the method shown. Binding seen in cells or lysates may run through a third protein. A yes stands for co-enrichment or nearness to the bait. Other partners may have been found.
# Target: FLAG-tagged AtpΘ (AtpΘ-3xFLAG) (Synechocystis sp. PCC 6803)
# Test: affinity purification with mass spectrometry
binder,measurement,value
"ATP synthase subunit b' (AtpF2) (protein, UniProt P27183 1-143) MFDFDATLPLMALQFVVLAFLLNAIFYKPMNKVLDERADYIRTNEEDARERLAKAKAITQEYEQQITDARRQSQAVIADAQAEARRLAAEKIAEAQRESQRQKETAAQEIEAQRQSALSSLEQEVAALSNQILHKLLGPELIK",binding,binds
"CmpC (protein, UniProt Q55462 1-667) MSLFVAVDNIDKVFSLTDGGEYIALKGINLEIKKGEFVSLIGHSGCGKSTLLNMIAGLDLPSEGIVTLEGQRIKQPGPDKMVIFQNYSLLPWLTVKQNIALAVDEVMKGASAAERKAIVEEHINLVGLGHAVDKRPGELSGGMKQRVAIARALAIRPKLLLLDEPFGALDALTRGNLQEQLMRICEQYQVTAVMVTHDVDEAVLLSDRIVMLTNGPGSNIGGILEVDIPRPRKRMEVVEHPSYYSLRSEIIYFLNQQKRIKKLRAKKTTAIARHGLEKVNLELGYVPLVACAPLVVAQEKGFFAKHGLDEVSLVRETSWRGIVDGIAGGYLDGAQMPAGMPTWLTAGGYREQSIPVVSALTMTRNGNAITLSKKLYDQGIYTAEDFRQLLLASDGDRHTLGMVHPSSMHNLLLRYWLAAHNINPDRDVHLKTIPPAQMVADLKAGTIDGYCVSEPWNLRASMEGAGFSIATDLEIWQNHPGKVLGVREDWAIAHPNTHVALVKALLEACAYCADPNHEMEIRELLATRQYLSTNIDYIHLGDPEGRTCRLGNPVEYSHHLFFGDQFNRPSRTEHLWMMTQMARWGDIPFPRNWVEILERVCRVGVFSTAARELGYDVNYQRQPIALFDGKVFNADDPIAYLNQTVIHRNFTIAEVHLDNPTPAPVFA",binding,binds
